Data from the supplement of paper PMC12823440, “Inhibitors supercharge kinase turnover through native proteolytic circuits” (Nature, 2025).
Where a name gives a salt, the structure may show the parent alone. The list shows a part of the results. The calls rarely recur for the same compound in another form.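 Kinases were expressed as nanoluciferase fusions in K562 cells and luminescence was read every 4 h between 2 and 18 h as percent of control, DMSO set to 100% and a positive control to 0%. A time point counts as decreased when the signal drops significantly (2 sigma). The hit call is the authors' own, does not follow from the count of time points alone, and its rule is not shown.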

Amino acid sequences for entries named in this document (tags omitted).
UniProt P29317, whole entry: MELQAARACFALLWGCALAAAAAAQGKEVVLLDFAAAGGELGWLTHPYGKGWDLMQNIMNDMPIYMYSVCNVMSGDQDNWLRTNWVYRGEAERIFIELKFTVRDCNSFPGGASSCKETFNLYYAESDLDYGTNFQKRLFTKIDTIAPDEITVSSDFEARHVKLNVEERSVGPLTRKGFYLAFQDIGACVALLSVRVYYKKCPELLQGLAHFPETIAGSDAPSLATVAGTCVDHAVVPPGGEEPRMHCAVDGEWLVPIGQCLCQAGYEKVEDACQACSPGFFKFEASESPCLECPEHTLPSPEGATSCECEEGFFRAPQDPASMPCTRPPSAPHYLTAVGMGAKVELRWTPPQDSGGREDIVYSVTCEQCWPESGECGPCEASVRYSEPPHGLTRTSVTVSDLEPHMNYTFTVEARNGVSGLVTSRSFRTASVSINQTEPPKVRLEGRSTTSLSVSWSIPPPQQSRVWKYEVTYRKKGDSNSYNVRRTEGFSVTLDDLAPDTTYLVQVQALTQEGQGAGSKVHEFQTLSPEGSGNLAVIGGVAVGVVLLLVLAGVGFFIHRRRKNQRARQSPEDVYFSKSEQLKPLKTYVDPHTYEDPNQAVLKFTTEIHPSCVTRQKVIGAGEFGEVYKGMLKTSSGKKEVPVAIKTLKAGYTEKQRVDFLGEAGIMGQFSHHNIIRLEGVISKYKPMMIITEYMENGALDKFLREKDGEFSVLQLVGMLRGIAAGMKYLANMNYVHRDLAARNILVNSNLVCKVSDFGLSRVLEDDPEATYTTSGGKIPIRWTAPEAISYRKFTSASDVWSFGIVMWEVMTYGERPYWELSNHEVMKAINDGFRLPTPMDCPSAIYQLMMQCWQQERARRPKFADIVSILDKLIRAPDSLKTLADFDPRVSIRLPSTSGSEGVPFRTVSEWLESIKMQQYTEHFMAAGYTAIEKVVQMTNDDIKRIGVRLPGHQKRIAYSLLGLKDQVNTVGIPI
UniProt P21860, whole entry: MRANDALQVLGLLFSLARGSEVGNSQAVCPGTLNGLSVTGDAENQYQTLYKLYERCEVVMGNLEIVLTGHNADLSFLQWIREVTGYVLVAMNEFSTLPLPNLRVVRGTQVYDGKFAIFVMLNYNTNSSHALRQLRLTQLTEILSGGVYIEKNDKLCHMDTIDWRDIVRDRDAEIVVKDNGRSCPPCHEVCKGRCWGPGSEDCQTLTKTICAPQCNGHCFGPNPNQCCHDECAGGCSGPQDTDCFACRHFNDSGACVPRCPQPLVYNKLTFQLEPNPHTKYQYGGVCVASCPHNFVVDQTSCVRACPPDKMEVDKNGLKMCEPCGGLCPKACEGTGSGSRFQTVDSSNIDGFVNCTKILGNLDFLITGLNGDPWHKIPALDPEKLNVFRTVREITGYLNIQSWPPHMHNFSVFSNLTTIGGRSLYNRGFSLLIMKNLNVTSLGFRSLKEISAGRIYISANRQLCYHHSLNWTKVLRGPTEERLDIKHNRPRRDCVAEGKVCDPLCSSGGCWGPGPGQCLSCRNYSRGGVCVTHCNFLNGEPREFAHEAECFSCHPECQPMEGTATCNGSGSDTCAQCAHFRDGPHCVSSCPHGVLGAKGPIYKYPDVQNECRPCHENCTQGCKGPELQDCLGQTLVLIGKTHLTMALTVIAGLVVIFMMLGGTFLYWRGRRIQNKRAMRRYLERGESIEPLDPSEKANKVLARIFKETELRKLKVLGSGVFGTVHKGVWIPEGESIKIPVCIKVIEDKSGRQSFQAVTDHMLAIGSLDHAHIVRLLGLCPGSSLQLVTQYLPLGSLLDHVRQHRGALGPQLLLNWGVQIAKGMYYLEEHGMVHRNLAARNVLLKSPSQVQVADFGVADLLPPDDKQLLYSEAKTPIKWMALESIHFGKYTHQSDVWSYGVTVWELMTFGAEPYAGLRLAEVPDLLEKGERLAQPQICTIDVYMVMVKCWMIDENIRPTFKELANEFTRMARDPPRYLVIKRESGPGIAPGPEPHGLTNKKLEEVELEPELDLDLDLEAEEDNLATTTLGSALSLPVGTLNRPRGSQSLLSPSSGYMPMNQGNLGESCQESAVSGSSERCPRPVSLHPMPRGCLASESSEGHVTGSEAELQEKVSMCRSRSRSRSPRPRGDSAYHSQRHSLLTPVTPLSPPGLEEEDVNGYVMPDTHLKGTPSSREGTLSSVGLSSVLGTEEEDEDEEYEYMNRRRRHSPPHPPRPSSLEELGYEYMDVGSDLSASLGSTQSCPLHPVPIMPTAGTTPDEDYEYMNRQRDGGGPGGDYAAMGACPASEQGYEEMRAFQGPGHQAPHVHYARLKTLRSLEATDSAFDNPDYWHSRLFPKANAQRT
UniProt Q15303, whole entry R711C: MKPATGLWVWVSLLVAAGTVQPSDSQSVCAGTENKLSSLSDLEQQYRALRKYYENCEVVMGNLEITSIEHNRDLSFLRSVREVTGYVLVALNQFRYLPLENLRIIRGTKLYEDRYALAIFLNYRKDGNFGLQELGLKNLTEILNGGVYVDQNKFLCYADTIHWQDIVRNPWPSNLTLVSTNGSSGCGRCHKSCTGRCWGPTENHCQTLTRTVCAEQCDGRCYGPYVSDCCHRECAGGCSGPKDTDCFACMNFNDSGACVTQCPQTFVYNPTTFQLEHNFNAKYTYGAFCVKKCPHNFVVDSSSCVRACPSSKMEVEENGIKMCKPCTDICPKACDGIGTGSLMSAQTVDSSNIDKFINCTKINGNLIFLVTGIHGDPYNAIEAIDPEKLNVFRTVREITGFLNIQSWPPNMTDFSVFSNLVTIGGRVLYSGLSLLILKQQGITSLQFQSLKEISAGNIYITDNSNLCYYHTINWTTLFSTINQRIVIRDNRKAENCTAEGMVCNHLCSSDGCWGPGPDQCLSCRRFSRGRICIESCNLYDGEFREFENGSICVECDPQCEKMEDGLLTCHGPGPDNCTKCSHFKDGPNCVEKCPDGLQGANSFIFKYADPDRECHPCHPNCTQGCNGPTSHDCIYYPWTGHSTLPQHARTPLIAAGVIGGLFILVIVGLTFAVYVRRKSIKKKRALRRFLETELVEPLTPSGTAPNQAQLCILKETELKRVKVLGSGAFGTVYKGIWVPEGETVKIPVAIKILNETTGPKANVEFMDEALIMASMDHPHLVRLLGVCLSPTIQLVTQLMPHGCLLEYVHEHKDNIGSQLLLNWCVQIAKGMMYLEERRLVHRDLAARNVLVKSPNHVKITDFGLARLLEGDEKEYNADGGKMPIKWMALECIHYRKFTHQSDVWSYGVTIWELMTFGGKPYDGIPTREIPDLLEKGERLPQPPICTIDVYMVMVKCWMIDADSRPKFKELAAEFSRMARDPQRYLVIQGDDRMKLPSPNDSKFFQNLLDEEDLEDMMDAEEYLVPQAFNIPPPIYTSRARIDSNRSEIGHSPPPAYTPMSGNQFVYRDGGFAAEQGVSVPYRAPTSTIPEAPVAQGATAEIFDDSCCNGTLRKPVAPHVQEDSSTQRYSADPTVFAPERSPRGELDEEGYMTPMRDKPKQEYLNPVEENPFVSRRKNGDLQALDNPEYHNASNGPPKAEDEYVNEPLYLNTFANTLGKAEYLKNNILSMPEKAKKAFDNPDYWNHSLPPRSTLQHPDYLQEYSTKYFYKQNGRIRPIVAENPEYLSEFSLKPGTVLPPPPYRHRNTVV

Tests used:
Test in all cases: kinase-Nluc reporter destabilization hit call (1 = scored as downregulated) (binary); higher = compound decreases kinase abundance
Settings in all cases: K562; 2-18 h
EGFR = EGFR (UniProt P00533)
EGFR_G719S = EGFR_G719S (UniProt P00533)
EGFR_G719S_T790M = EGFR_G719S_T790M (UniProt P00533)
EGFR_L718V = EGFR_L718V (UniProt P00533)
EGFR_L858R = EGFR_L858R (UniProt P00533)
EGFR_L861Q = EGFR_L861Q (UniProt P00533)
EGFR_T790M = EGFR_T790M (UniProt P00533)
EPHA2 = EPHA2 (UniProt P29317)
ERBB3 = ERBB3 (UniProt P21860)
[1] = target: ERBB4_R711C (clone: ERBB4_mut) (UniProt Q15303)

Measured: kinase-Nluc reporter destabilization hit call

COc1cccc(OC)c1C(=O)OCc1cc(O)ccc1O[C@@H]1O[C@H](CO)[C@@H](O)[C@H](O)[C@H]1O [Curculigoside] (10 µM)
inactive: EGFR 0 | EGFR_G719S 0 | EGFR_G719S_T790M 0 | EGFR_L718V 0 | EGFR_L858R 0 | EGFR_L861Q 0 | EGFR_T790M 0 | EPHA2 = 0 | ERBB3 = 0 | [1] 0

C[C@@H]1COCCN1c1cc(C2([S@@](C)(=N)=O)CC2)nc(-c2ccnc3[nH]ccc23)n1 [(S)-Ceralasertib] (10 µM)
inactive: EGFR 0 | EGFR_G719S 0 | EGFR_G719S_T790M 0 | EGFR_L718V 0 | EGFR_L858R 0 | EGFR_L861Q 0 | EGFR_T790M 0 | EPHA2 = 0 | ERBB3 = 0 | [1] 0

COc1cc2ncc(-c3ccccc3)nc2cc1OC [Tyrphostin AG1296] (10 µM)
inactive: EGFR 0 | EGFR_G719S 0 | EGFR_G719S_T790M 0 | EGFR_L718V 0 | EGFR_L858R 0 | EGFR_L861Q 0 | EGFR_T790M 0 | EPHA2 = 0 | ERBB3 = 0 | [1] 0

NC(=O)c1ccc(-c2nc(-c3ccc4c(c3)OCCO4)c(-c3ccccn3)[nH]2)cc1 (10 µM)
inactive: EGFR 0 | EGFR_G719S 0 | EGFR_G719S_T790M 0 | EGFR_L718V 0 | EGFR_L858R 0 | EGFR_L861Q 0 | EGFR_T790M 0 | EPHA2 = 0 | ERBB3 = 0 | [1] 0

CN(C)C(=O)Cn1cc(-c2ccc(-c3cncc4ccccc34)cc2)cn1 (10 µM)
inactive: EGFR 0 | EGFR_G719S 0 | EGFR_G719S_T790M 0 | EGFR_L718V 0 | EGFR_L858R 0 | EGFR_L861Q 0 | EGFR_T790M 0 | EPHA2 = 0 | ERBB3 = 0 | [1] 0

Nc1cc(C(F)(F)F)c(-c2cc(N3CCOCC3)nc(N3CCOCC3)n2)cn1 [Buparlisib (Hydrochloride)] (2.5 µM)
inactive: EGFR 0 | EGFR_G719S 0 | EGFR_G719S_T790M 0 | EGFR_L718V 0 | EGFR_L858R 0 | EGFR_L861Q 0 | EGFR_T790M 0 | EPHA2 = 0 | ERBB3 = 0 | [1] 0

C[C@H](c1ccnc(Nc2nc3ccc(-c4cc(N(C)C)ncn4)cc3[nH]2)c1)N1CCN(C(=O)CC(F)(F)F)CC1 (2.5 µM)
inactive: EGFR 0 | EGFR_G719S 0 | EGFR_G719S_T790M 0 | EGFR_L718V 0 | EGFR_L858R 0 | EGFR_L861Q 0 | EGFR_T790M 0 | EPHA2 = 0 | ERBB3 = 0 | [1] 0

Cn1cc(-c2cnn3c(N)c(Br)c([C@@H]4CCCNC4)nc23)cn1 (2.5 µM)
inactive: EGFR 0 | EGFR_G719S 0 | EGFR_G719S_T790M 0 | EGFR_L718V 0 | EGFR_L858R 0 | EGFR_L861Q 0 | EGFR_T790M 0 | EPHA2 = 0 | ERBB3 = 0 | [1] 0

COc1cc(OC2CCN(C)CC2)ccc1Nc1ncc2c(n1)n(C1CCCC1)c(=O)n2C (10 µM)
inactive: EGFR 0 | EGFR_G719S 0 | EGFR_G719S_T790M 0 | EGFR_L718V 0 | EGFR_L858R 0 | EGFR_L861Q 0 | EGFR_T790M 0 | EPHA2 = 0 | ERBB3 = 0 | [1] 0

C[C@@H]1CC[C@@H](Nc2nc(NC(C)(C)C)ncc2C(N)=O)C[C@H]1O (10 µM)
inactive: EGFR 0 | EGFR_G719S 0 | EGFR_G719S_T790M 0 | EGFR_L718V 0 | EGFR_L858R 0 | EGFR_L861Q 0 | EGFR_T790M 0 | EPHA2 = 0 | ERBB3 = 0 | [1] 0

C=CC(=O)Nc1cc(Nc2ncc(Cl)c(-c3c[nH]c4ccccc34)n2)c(OC)cc1N(C)CCN(C)C [Mutant EGFR inhibitor] (2.5 µM)
inactive: EGFR 0 | EGFR_G719S 0 | EGFR_G719S_T790M 0 | EGFR_L718V 0 | EGFR_L858R 0 | EGFR_L861Q 0 | EGFR_T790M 0 | EPHA2 = 0 | ERBB3 = 0 | [1] 0

Cn1ncc(Cl)c1-c1cc(C(=O)N[C@H](CN)Cc2ccc(F)c(F)c2)oc1Cl [Uprosertib] (10 µM)
inactive: EGFR 0 | EGFR_G719S 0 | EGFR_G719S_T790M 0 | EGFR_L718V 0 | EGFR_L858R 0 | EGFR_L861Q 0 | EGFR_T790M 0 | EPHA2 = 0 | ERBB3 = 0 | [1] 0

COc1ccc(OC)c(C2C(C#N)=C(N)Oc3n[nH]c(-c4ccc5ccccc5c4)c32)c1 (stereo not drawn) (10 µM)
inactive: EGFR 0 | EGFR_G719S 0 | EGFR_G719S_T790M 0 | EGFR_L718V 0 | EGFR_L858R 0 | EGFR_L861Q 0 | EGFR_T790M 0 | EPHA2 = 0 | ERBB3 = 0 | [1] 0

COc1ccc2c(OCc3nnc4ccc(-c5ccccc5)nn34)ccnc2c1 (2 µM)
inactive: EGFR 0 | EGFR_G719S 0 | EGFR_G719S_T790M 0 | EGFR_L718V 0 | EGFR_L858R 0 | EGFR_L861Q 0 | EGFR_T790M 0 | EPHA2 = 0 | ERBB3 = 0 | [1] 0

Cc1cccc(Oc2cnc(=O)[nH]c2)c1 [Tolimidone] (10 µM)
inactive: EGFR 0 | EGFR_G719S 0 | EGFR_G719S_T790M 0 | EGFR_L718V 0 | EGFR_L858R 0 | EGFR_L861Q 0 | EGFR_T790M 0 | EPHA2 = 0 | ERBB3 = 0 | [1] 0

CC1(C)C(O[C@@H]2OC[C@@H](O)[C@H](O)[C@H]2O)CC[C@]23CC24CC[C@]2(C)[C@@H]([C@@]5(C)CC[C@@H](C(C)(C)O)O5)[C@H](O)C[C@@]2(C)C4C[C@@H](O[C@@H]2O[C@H](CO)[C@@H](O)[C@H](O)[C@H]2O)C13 (stereo partly drawn) [Astragaloside IV] (10 µM)
inactive: EGFR 0 | EGFR_G719S 0 | EGFR_G719S_T790M 0 | EGFR_L718V 0 | EGFR_L858R 0 | EGFR_L861Q 0 | EGFR_T790M 0 | EPHA2 = 0 | ERBB3 = 0 | [1] 0

C[C@@H](c1ccc(-c2ccccc2)c(F)c1)c1cc(NC(=N)N2CCOCC2)on1 [Rimacalib] (10 µM)
inactive: EGFR 0 | EGFR_G719S 0 | EGFR_G719S_T790M 0 | EGFR_L718V 0 | EGFR_L858R 0 | EGFR_L861Q 0 | EGFR_T790M 0 | EPHA2 = 0 | ERBB3 = 0 | [1] 0

Sorted by formula weight (rising): part of the list above.
Cc1cccc(Oc2cnc(=O)[nH]c2)c1 [Tolimidone] (10 µM)
inactive: EGFR 0 | EGFR_G719S 0 | EGFR_G719S_T790M 0 | EGFR_L718V 0 | EGFR_L858R 0 | EGFR_L861Q 0 | EGFR_T790M 0 | EPHA2 = 0 | ERBB3 = 0 | [1] 0

C[C@@H](c1ccc(-c2ccccc2)c(F)c1)c1cc(NC(=N)N2CCOCC2)on1 [Rimacalib] (10 µM)
inactive: EGFR 0 | EGFR_G719S 0 | EGFR_G719S_T790M 0 | EGFR_L718V 0 | EGFR_L858R 0 | EGFR_L861Q 0 | EGFR_T790M 0 | EPHA2 = 0 | ERBB3 = 0 | [1] 0

COc1ccc(OC)c(C2C(C#N)=C(N)Oc3n[nH]c(-c4ccc5ccccc5c4)c32)c1 (stereo not drawn) (10 µM)
inactive: EGFR 0 | EGFR_G719S 0 | EGFR_G719S_T790M 0 | EGFR_L718V 0 | EGFR_L858R 0 | EGFR_L861Q 0 | EGFR_T790M 0 | EPHA2 = 0 | ERBB3 = 0 | [1] 0

Next part.

CCNc1nc(Nc2cc(F)c(C(=O)N3CCOCC3)cc2OC)ncc1C(F)(F)F [GNE-7915 (tosylate)] (10 µM)
inactive: EGFR 0 | EGFR_G719S 0 | EGFR_G719S_T790M 0 | EGFR_L718V 0 | EGFR_L858R 0 | EGFR_L861Q 0 | EGFR_T790M 0 | EPHA2 = 0 | ERBB3 = 0 | [1] 0

FC(F)(c1ccc2ncccc2c1)c1nnc2ccc(-c3ccncc3)nn12 (10 µM)
inactive: EGFR 0 | EGFR_G719S 0 | EGFR_G719S_T790M 0 | EGFR_L718V 0 | EGFR_L858R 0 | EGFR_L861Q 0 | EGFR_T790M 0 | EPHA2 = 0 | ERBB3 = 0 | [1] 0

CNc1nc(Nc2ccc(C(=O)N3CCOCC3)cc2OC)nc2[nH]cc(Cl)c12 (2.5 µM)
inactive: EGFR 0 | EGFR_G719S 0 | EGFR_G719S_T790M 0 | EGFR_L718V 0 | EGFR_L858R 0 | EGFR_L861Q 0 | EGFR_T790M 0 | EPHA2 = 0 | ERBB3 = 0 | [1] 0

CCC(C)N1c2ccccc2C(=O)N(C)c2cnc(Nc3ccc(C(=O)N4CCC(N5CCN(C)CC5)CC4)cc3OC)nc21 (stereo not drawn) (2.5 µM)
inactive: EGFR 0 | EGFR_G719S 0 | EGFR_G719S_T790M 0 | EGFR_L718V 0 | EGFR_L858R 0 | EGFR_L861Q 0 | EGFR_T790M 0 | EPHA2 = 0 | ERBB3 = 0 | [1] 0

CCOc1ccc2cc(-c3nn(CC4CCN(C)CC4)c4ncnc(N)c34)ccc2n1 (10 µM)
inactive: EGFR 0 | EGFR_G719S 0 | EGFR_G719S_T790M 0 | EGFR_L718V 0 | EGFR_L858R 0 | EGFR_L861Q 0 | EGFR_T790M 0 | EPHA2 = 0 | ERBB3 = 0 | [1] 0

Cc1ccc(C(=O)Nc2ccc(Oc3cc4cnn(C)c4cc3-c3cn[nH]c3)c(F)c2)c(=O)n1-c1ccc(F)cc1 [Merestinib dihydrochloride] (2.5 µM)
inactive: EGFR 0 | EGFR_G719S 0 | EGFR_G719S_T790M 0 | EGFR_L718V 0 | EGFR_L858R 0 | EGFR_L861Q 0 | EGFR_T790M 0 | EPHA2 = 0 | ERBB3 = 0 | [1] 0

Cn1cc(-c2ccc3nnc(Sc4ccc5ncccc5c4)n3n2)cn1 (10 µM)
inactive: EGFR 0 | EGFR_G719S 0 | EGFR_G719S_T790M 0 | EGFR_L718V 0 | EGFR_L858R 0 | EGFR_L861Q 0 | EGFR_T790M 0 | EPHA2 = 0 | ERBB3 = 0 | [1] 0

CCc1cc2c(cc1N1CCC(N3CCOCC3)CC1)C(C)(C)c1[nH]c3cc(C#N)ccc3c1C2=O [Alectinib] (10 µM)
inactive: EGFR 0 | EGFR_G719S 0 | EGFR_G719S_T790M 0 | EGFR_L718V 0 | EGFR_L858R 0 | EGFR_L861Q 0 | EGFR_T790M 0 | EPHA2 = 0 | ERBB3 = 0 | [1] 0

CCCCCCCCCCCCC/C=C/[C@@H](O)[C@@H](N)CO [D-erythro-Sphingosine] (2.5 µM)
inactive: EGFR 0 | EGFR_G719S 0 | EGFR_G719S_T790M 0 | EGFR_L718V 0 | EGFR_L858R 0 | EGFR_L861Q 0 | EGFR_T790M 0 | EPHA2 = 0 | ERBB3 = 0 | [1] 0

C=C1C(=O)O[C@H]2C[C@H](C)C(/C=C/C(C)=O)=CC[C@H]12 [Xanthatin] (2.5 µM)
inactive: EGFR 0 | EGFR_G719S 0 | EGFR_G719S_T790M 0 | EGFR_L718V 0 | EGFR_L858R 0 | EGFR_L861Q 0 | EGFR_T790M 0 | EPHA2 = 0 | ERBB3 = 0 | [1] 0

COc1cc(Nc2ncc(F)c(Nc3ccc4c(n3)NC(=O)C(C)(C)O4)n2)cc(OC)c1OC (10 µM)
inactive: EPHA2 = 0 | ERBB3 = 0 | [1] 0

COc1cc2ncnc(Nc3ccc(Cl)cc3F)c2cc1OC (10 µM)
inactive: EGFR 0 | EGFR_G719S 0 | EGFR_G719S_T790M 0 | EGFR_L718V 0 | EGFR_L858R 0 | EGFR_L861Q 0 | EGFR_T790M 0 | EPHA2 = 0 | ERBB3 = 0 | [1] 0
